Assay results from patent publication US20060094013A1, “Salt-inducible kinases 2 and use thereof” (priority 2002, published 2006).
For at least one compound, name, drawing or mass did not settle the structure.

Test system: SIK2 gene
Assay: SIK2 mRNA level after incubation with hormones (Northern blot)
Format: cell-based
Conditions: used singly, 2 hours; insulin 1 μg/ml, cAMP 1 mM, dexamethasone 1 μM

C[C@@H]1C[C@H]2[C@@H]3CCC4=CC(=O)C=C[C@]4(C)[C@@]3(F)[C@@H](O)C[C@]2(C)[C@@]1(O)C(=O)CO [dexamethasone]
effect on transcription of the SIK2 gene (mRNA level): activated the SIK2 gene at the level equivalent to that obtained by the mixture consisting of the 3 types of hormones
